# The other results are listed elsewhere or left out.
# The chains behind the UniProt entries cited, without tags or fusion partners. Where a name states a change or a piece, a line headed by the entry shows the natural chain unless it says otherwise.
# UniProt Q5SRI9: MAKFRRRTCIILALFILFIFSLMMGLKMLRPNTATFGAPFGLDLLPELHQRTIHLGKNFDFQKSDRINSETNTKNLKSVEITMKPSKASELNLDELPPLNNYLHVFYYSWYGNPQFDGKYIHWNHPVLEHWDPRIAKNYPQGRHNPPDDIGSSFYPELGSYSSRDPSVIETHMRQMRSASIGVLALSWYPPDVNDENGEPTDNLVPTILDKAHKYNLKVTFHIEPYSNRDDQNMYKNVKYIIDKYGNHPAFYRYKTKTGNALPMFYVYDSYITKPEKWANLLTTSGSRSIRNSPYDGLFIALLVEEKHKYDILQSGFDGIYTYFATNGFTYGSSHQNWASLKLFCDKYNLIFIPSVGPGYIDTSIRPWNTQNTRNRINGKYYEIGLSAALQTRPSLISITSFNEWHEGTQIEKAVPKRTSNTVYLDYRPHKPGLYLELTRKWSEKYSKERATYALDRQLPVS
# UniProt Q9Y608: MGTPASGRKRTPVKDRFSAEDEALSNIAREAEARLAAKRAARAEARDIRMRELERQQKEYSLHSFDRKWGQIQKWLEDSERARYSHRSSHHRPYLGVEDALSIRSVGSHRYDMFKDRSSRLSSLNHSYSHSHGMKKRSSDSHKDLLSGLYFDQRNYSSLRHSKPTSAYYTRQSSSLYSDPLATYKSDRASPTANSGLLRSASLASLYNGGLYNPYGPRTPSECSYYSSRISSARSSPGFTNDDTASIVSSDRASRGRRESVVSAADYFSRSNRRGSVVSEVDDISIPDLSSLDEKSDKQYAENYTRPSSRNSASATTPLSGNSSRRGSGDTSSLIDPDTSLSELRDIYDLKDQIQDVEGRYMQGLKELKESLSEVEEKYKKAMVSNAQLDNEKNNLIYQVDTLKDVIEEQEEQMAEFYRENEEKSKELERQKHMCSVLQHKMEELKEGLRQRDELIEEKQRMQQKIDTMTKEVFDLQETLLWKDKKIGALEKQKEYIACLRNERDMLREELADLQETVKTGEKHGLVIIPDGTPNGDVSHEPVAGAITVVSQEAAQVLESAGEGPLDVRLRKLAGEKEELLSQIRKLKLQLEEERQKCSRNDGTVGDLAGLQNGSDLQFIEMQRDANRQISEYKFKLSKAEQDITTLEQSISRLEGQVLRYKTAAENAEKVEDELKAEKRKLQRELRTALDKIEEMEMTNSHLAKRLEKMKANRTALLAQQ
# UniProt O15479: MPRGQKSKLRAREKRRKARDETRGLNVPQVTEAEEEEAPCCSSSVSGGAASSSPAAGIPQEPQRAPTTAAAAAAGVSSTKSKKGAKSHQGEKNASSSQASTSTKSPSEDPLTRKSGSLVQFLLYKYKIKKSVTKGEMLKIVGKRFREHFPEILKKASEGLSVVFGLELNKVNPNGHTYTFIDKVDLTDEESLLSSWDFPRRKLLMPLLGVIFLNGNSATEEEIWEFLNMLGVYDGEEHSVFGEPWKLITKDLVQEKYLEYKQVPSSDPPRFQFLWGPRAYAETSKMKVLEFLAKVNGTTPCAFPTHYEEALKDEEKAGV
# UniProt Q8WV07: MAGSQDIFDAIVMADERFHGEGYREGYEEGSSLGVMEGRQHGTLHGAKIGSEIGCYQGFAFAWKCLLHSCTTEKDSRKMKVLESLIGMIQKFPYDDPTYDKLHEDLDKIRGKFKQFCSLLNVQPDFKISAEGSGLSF
# UniProt Q6ZN28: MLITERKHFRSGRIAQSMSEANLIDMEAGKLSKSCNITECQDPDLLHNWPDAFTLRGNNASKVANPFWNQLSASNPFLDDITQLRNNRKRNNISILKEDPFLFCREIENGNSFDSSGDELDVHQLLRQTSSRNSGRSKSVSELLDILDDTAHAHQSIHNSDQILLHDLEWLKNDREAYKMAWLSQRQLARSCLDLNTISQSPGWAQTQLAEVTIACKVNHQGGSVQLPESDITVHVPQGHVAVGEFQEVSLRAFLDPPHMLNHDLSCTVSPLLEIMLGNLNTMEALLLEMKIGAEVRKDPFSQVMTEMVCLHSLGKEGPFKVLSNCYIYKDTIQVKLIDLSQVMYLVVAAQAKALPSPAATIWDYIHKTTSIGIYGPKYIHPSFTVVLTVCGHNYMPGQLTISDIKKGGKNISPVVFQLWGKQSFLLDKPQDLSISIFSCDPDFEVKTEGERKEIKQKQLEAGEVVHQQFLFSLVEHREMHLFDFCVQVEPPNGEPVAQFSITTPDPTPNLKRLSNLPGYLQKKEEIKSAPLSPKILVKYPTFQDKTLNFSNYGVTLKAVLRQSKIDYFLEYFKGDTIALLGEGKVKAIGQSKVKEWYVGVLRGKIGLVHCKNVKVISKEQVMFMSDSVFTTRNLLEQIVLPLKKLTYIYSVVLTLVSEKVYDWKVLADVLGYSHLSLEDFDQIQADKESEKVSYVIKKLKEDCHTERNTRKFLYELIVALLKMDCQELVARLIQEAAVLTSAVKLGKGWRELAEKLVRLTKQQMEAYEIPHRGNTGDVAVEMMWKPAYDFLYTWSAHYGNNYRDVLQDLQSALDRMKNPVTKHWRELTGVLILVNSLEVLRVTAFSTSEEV
# UniProt P33908: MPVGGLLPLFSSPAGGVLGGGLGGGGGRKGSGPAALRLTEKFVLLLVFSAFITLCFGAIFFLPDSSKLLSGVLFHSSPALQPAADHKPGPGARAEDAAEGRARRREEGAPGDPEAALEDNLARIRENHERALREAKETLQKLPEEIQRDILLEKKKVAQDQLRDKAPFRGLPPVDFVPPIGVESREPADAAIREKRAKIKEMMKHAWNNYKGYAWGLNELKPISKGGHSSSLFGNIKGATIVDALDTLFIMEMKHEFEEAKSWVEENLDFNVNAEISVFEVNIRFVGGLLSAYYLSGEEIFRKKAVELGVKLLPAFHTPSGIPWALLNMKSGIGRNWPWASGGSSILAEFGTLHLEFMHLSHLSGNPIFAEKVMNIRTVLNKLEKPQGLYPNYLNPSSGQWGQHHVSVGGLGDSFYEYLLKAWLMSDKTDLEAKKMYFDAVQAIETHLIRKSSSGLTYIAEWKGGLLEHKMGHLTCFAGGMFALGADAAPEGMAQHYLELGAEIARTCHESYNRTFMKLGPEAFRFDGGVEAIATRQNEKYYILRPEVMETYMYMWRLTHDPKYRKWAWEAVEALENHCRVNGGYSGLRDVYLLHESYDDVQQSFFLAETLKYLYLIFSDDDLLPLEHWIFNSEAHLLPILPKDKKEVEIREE
# UniProt O14733: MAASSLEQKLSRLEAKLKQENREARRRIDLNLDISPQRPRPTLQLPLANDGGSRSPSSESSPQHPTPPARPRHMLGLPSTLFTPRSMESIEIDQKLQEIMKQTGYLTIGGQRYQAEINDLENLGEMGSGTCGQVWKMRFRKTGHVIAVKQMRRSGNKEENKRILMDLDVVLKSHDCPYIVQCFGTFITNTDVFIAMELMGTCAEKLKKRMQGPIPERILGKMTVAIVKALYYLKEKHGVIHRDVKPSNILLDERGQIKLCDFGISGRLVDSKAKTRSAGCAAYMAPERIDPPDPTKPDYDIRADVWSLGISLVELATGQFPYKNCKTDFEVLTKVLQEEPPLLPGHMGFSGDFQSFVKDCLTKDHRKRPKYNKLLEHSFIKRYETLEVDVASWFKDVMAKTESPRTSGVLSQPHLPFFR
# UniProt Q96S90: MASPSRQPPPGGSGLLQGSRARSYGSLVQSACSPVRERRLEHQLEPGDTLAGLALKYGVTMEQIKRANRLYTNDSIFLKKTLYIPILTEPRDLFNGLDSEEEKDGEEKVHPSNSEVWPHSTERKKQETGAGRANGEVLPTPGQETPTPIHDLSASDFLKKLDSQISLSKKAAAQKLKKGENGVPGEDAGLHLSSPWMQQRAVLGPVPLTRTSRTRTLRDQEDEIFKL
# UniProt P78559: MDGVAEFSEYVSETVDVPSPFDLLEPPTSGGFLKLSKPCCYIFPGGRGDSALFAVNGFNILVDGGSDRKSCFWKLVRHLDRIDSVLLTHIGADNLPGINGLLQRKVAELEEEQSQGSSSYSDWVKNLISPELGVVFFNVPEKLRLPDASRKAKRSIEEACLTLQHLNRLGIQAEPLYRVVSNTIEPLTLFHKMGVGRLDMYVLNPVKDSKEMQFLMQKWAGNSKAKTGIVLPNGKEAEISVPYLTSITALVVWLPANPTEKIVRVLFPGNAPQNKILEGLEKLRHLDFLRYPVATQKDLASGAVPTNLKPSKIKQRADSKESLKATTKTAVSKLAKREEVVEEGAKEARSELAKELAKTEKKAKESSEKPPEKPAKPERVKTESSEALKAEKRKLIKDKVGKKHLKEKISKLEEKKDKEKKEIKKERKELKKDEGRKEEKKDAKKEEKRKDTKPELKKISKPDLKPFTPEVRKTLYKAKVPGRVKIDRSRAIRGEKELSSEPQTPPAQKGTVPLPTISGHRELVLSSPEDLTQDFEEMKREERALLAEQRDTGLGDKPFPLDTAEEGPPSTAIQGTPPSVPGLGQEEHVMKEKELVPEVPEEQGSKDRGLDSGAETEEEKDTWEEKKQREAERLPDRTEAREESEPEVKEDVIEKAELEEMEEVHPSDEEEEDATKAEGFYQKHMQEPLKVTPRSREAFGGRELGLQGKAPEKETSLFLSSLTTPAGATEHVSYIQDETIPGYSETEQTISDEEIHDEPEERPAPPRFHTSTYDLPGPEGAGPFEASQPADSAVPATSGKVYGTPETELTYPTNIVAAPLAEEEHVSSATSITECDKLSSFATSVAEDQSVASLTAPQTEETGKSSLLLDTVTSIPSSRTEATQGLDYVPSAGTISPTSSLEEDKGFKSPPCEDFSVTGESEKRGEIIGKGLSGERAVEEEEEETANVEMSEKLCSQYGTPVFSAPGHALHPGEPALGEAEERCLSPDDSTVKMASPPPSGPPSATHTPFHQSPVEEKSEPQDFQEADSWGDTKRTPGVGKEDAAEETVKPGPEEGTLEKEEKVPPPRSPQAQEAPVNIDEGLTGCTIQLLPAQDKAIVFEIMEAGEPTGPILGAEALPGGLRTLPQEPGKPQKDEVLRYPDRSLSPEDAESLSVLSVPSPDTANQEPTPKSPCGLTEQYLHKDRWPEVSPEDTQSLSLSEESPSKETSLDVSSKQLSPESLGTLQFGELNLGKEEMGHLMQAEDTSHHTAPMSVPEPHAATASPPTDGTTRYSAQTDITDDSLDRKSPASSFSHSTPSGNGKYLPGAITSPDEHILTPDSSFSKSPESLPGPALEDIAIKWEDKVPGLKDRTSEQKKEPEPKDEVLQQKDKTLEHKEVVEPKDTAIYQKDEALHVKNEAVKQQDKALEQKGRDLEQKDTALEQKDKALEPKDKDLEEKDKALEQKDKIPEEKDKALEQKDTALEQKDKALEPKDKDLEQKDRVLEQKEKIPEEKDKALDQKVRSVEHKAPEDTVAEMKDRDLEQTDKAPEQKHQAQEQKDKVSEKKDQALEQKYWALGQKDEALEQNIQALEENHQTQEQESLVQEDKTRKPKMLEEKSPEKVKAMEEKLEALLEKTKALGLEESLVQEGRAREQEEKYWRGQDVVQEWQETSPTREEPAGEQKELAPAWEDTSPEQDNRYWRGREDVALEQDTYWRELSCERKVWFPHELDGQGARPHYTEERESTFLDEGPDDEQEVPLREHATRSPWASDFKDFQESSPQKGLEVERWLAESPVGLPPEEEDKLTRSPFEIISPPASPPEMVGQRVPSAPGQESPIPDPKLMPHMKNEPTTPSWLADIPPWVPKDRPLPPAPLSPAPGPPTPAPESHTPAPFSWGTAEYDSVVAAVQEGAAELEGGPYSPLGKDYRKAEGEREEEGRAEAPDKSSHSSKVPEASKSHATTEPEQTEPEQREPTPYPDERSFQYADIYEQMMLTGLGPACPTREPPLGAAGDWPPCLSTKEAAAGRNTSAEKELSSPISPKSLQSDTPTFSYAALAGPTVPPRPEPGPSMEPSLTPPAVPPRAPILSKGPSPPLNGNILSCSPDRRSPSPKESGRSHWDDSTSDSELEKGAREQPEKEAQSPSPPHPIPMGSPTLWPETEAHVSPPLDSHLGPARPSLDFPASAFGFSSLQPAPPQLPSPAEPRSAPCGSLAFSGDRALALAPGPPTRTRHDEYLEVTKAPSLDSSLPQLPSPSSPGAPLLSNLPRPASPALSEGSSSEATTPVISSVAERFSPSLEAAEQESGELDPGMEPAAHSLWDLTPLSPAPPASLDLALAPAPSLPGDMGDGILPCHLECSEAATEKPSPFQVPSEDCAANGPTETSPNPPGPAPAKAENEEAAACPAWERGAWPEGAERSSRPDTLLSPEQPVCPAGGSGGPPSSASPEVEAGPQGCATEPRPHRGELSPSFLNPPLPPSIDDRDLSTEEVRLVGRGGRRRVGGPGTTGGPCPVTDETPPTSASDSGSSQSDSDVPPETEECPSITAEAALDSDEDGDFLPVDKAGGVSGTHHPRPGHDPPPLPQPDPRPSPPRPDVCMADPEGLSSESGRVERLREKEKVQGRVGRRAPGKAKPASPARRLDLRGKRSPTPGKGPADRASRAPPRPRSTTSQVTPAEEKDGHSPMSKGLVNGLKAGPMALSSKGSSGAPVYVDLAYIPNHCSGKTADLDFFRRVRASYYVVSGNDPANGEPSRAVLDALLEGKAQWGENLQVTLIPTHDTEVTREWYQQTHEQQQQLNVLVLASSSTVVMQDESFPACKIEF
# What was measured:
# Assay in all cases: log2 fold change, soluble protein after heating vs DMSO (PISA); higher = thermal stabilisation; K562 cells, 10 uM, 30 min; active = over 0.2 and 3.5 SD of the protein, either way, in both replicates (recomputed)
# [1] = compound: NC(=O)Nc1cc(-c2cccc(F)c2)sc1C(=O)N[C@H]1CCCNC1
# Method in brief: (§1)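 Soluble protein was defined as the supernatant after 21,000xg for 90 min. It came from K562 cells at 2×10^6 cells/mL given 10 μM compound for 30 min, heated in aliquots for 3 min across 48°C-58°C, pooled, and extracted in PBS with 0.5% NP-40 at 4°C, and was quantified by TMTpro 16plex LC-MS/MS with equalised channel sums. Thermal stability against control samples, from duplicates, is reported as log2 fold change.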
# [2] = compound: NC(=O)c1cnc(N[C@@H]2CCCC[C@@H]2N)nc1Nc1cccc(-n2nccn2)c1
# Method in brief: as §1
# [3] = compound: NC1(c2ccc(-c3nc4ccn5c(=O)[nH]nc5c4cc3-c3ccccc3)cc2)CCC1
# Method in brief: as §1
# [4] = compound: NCC(=O)Nc1ccc(-n2nc(C(F)(F)F)cc2-c2ccc3c(ccc4ccccc43)c2)cc1
# Method in brief: as §1
# entinostat = compound: Nc1ccccc1NC(=O)c1ccc(CNC(=O)OCc2cccnc2)cc1 [entinostat]
# Method in brief: as §1
# vorinostat = compound: O=C(CCCCCCC(=O)Nc1ccccc1)NO [vorinostat]
# Method in brief: as §1
# citarinostat = compound: O=C(CCCCCCNC(=O)c1cnc(N(c2ccccc2)c2ccccc2Cl)nc1)NO [citarinostat]
# Method in brief: as §1
# silmitasertib = compound: O=C(O)c1ccc2c(c1)nc(Nc1cccc(Cl)c1)c1ccncc12 [silmitasertib]
# Method in brief: as §1
# [5] = compound: O=C1NC(=O)C(c2cnc3ccccn23)=C1c1cn2c3c(cc(F)cc13)CN(C(=O)N1CCCCC1)CC2
# Method in brief: as §1
# [6] = compound: c1cc(OCCN2CCCCC2)cc(-c2n[nH]c3ccc(-c4nnc[nH]4)cc23)c1
# Method in brief: as §1
Target,log2 fold change [1],log2 fold change [2],log2 fold change [3],log2 fold change [4],log2 fold change (entinostat),log2 fold change (vorinostat),log2 fold change (citarinostat),log2 fold change (silmitasertib),log2 fold change [5],log2 fold change [6]
MANEA (UniProt Q5SRI9),inactive: -0.046,inactive: -0.044,inactive: -0.06,inactive: -0.018,inactive: 0.008,inactive: 0.177,inactive: 0.017,inactive: 0.058,inactive: -0.045,inactive: -0.113
LTV1 (UniProt Q96GA3),inactive: 0.006,inactive: 0.008,inactive: 0.003,inactive: 0.041,inactive: 0.034,inactive: -0.005,inactive: -0.038,inactive: 0.147,inactive: 0.132,inactive: -0.16
LRRFIP2 (UniProt Q9Y608),inactive: 0.029,inactive: -0.015,inactive: 0.046,inactive: 0.027,inactive: -0.024,inactive: -0.029,inactive: 0,inactive: 0.035,inactive: -0.033,inactive: -0.03
LYSMD2 (UniProt Q8IV50),inactive: -0.032,inactive: -0.045,inactive: -0.028,inactive: -0.023,inactive: 0.055,inactive: -0.01,inactive: -0.032,inactive: 0.025,inactive: -0.08,inactive: -0.012
MAGEB2 (UniProt O15479),inactive: 0.141,inactive: 0.025,inactive: 0.232,inactive: 0.11,inactive: -0.023,inactive: 0.014,inactive: -0.12,inactive: 0.109,inactive: 0.126,inactive: 0.466
LTO1 (UniProt Q8WV07),inactive: -0.077,inactive: 0.009,inactive: -0.011,inactive: 0.094,inactive: -0.097,inactive: 0.005,inactive: 0.044,inactive: 0.158,inactive: -0.015,inactive: -0.126
MAPRE3 (UniProt Q9UPY8),inactive: -0.002,inactive: -0.053,inactive: -0.112,inactive: -0.052,inactive: 0.066,inactive: 0.002,inactive: 0.049,inactive: 0.004,inactive: -0.087,inactive: -0.04
MAGEA9 (UniProt P43362),inactive: -0.017,inactive: -0.027,inactive: -0.243,inactive: 0.033,inactive: 0,inactive: 0.132,inactive: 0.013,inactive: 0.052,inactive: -0.079,inactive: -0.106
MAN2C1 isoform 4 (UniProt Q9NTJ4),inactive: -0.059,inactive: -0.012,inactive: -0.007,inactive: -0.006,inactive: -0.049,inactive: -0.018,inactive: -0.014,inactive: 0.065,inactive: 0.045,inactive: -0.048
MACC1 (UniProt Q6ZN28),inactive: -0.133,inactive: -0.071,inactive: -0.175,inactive: -0.044,inactive: 0.043,inactive: -0.031,inactive: 0.073,inactive: -0.066,inactive: -0.079,inactive: -0.106
LYAR (UniProt Q9NX58),inactive: 0.22,inactive: 0.309,inactive: 0.397,inactive: 0.258,inactive: -0.142,inactive: -0.087,inactive: -0.148,inactive: 0.33,inactive: 0.361,inactive: -0.241
LZIC isoform 2 (UniProt Q8WZA0),inactive: -0.038,inactive: -0.009,inactive: -0.034,inactive: 0.006,inactive: -0.061,inactive: -0.038,inactive: 0,inactive: -0.048,inactive: -0.04,inactive: 0.007
MAN1A1 (UniProt P33908),inactive: -0.031,inactive: -0.007,inactive: -0.006,inactive: -0.026,inactive: -0.032,inactive: -0.047,inactive: 0.005,inactive: -0.016,inactive: -0.057,inactive: -0.076
MAPKAPK3 (UniProt Q16644),inactive: 0.147,inactive: -0.024,inactive: -0.125,inactive: -0.052,inactive: -0.068,inactive: -0.006,inactive: -0.012,inactive: 0.18,inactive: -0.141,inactive: 0.05
MAPKAPK2 (UniProt P49137),inactive: 0.12,inactive: 0.035,inactive: -0.14,inactive: 0.034,inactive: 0.018,inactive: 0.04,inactive: 0.058,inactive: 0.06,inactive: -0.128,inactive: -0.006
MARK3 (UniProt P27448),inactive: -0.125,inactive: -0.181,inactive: -0.006,inactive: -0.113,inactive: 0.064,inactive: 0.139,inactive: 0.103,inactive: -0.02,inactive: -0.017,inactive: -0.317
MAP2K7 isoform 4 (UniProt O14733),inactive: 0.008,inactive: -0.051,inactive: -0.078,inactive: -0.015,inactive: 0.015,inactive: 0.084,inactive: 0.041,inactive: -0.019,inactive: -0.052,inactive: -0.044
LYSMD1 (UniProt Q96S90),inactive: 0.134,inactive: 0.012,inactive: -0.137,inactive: -0.021,inactive: 0.031,inactive: -0.007,inactive: -0.03,inactive: 0.005,inactive: -0.03,inactive: -0.016
MAPKAPK5 (UniProt Q8IW41),active: 0.382,inactive: 0.029,inactive: -0.051,inactive: -0.009,inactive: 0.027,inactive: 0.053,inactive: -0.003,inactive: -0.044,inactive: -0.078,inactive: 0.213
LUC7L (UniProt Q9NQ29),inactive: -0.061,inactive: 0.011,inactive: 0.17,inactive: -0.043,inactive: -0.01,inactive: -0.058,inactive: -0.052,inactive: -0.006,inactive: 0.133,inactive: -0.095
LRRFIP1 (UniProt Q32MZ4),inactive: -0.027,inactive: 0.015,inactive: 0.056,inactive: 0.024,inactive: -0.042,inactive: -0.079,inactive: -0.007,inactive: 0.049,inactive: 0.01,inactive: -0.013
MACF1 (UniProt Q9UPN3),inactive: 0.006,inactive: -0.062,inactive: -0.05,inactive: 0.019,inactive: 0.039,inactive: 0.047,inactive: -0.018,inactive: 0.078,inactive: 0.048,inactive: -0.1
LSM1 (UniProt O15116),inactive: 0.046,inactive: -0.016,inactive: 0.017,inactive: 0.01,inactive: -0.058,inactive: -0.012,inactive: -0.045,inactive: -0.033,inactive: -0.073,inactive: -0.033
MAP1A isoform 2 (UniProt P78559),inactive: 0.023,inactive: -0.017,inactive: -0.006,inactive: 0.074,inactive: -0.036,inactive: -0.018,inactive: -0.02,inactive: 0.017,inactive: 0.033,inactive: -0.05
MARCKSL1 (UniProt P49006),inactive: -0.02,inactive: 0.028,inactive: -0.01,inactive: 0.002,inactive: 0.075,inactive: -0.062,inactive: 0.162,inactive: -0.115,inactive: -0.035,inactive: 0.089
LYRM4 (UniProt Q9HD34),inactive: 0.027,inactive: 0.012,inactive: -0.037,inactive: -0.042,inactive: 0.032,inactive: 0.005,inactive: 0.053,inactive: -0.01,inactive: -0.013,inactive: 0.01
MAGED2 (UniProt Q9UNF1),inactive: 0.009,inactive: -0.047,inactive: -0.231,inactive: -0.064,inactive: -0.039,inactive: -0.005,inactive: 0.062,inactive: -0.008,inactive: -0.013,inactive: -0.065

# Part of the list above, tab-delimited.
Target	log2 fold change [1]	log2 fold change [2]	log2 fold change [3]	log2 fold change [4]	log2 fold change (entinostat)	log2 fold change (vorinostat)	log2 fold change (citarinostat)	log2 fold change (silmitasertib)	log2 fold change [5]	log2 fold change [6]
MANEA (UniProt Q5SRI9)	inactive: -0.046	inactive: -0.044	inactive: -0.06	inactive: -0.018	inactive: 0.008	inactive: 0.177	inactive: 0.017	inactive: 0.058	inactive: -0.045	inactive: -0.113
MAPKAPK2 (UniProt P49137)	inactive: 0.12	inactive: 0.035	inactive: -0.14	inactive: 0.034	inactive: 0.018	inactive: 0.04	inactive: 0.058	inactive: 0.06	inactive: -0.128	inactive: -0.006
